CN110938146A
Residue numbers refer to the chain shown, from its start. No constants are given. Whether binding was seen depends on the method and setting. Some entries that bind do so weakly or less than the wild type.

By UniProt entry, the sequences of proteins in these tests, tags left out. Residues count along the entry.
UniProt Q8TDQ0, residues 22-200: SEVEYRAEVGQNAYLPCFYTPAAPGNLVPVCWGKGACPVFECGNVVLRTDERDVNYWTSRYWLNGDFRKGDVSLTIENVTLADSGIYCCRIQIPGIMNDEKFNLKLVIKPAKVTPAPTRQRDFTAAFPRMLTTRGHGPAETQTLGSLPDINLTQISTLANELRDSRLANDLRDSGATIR

B1: TIM-3-CX101 (VHH)
VHH: QVQLVQSGGGLVQPGGSLRLSCAASEWTKQVPEMSWVRQAPGKGLEWIGSIYHSGSTYYNPSLKSRVTISRDNSKNTLYLQMNTLRAEDTATYYCARVSFDRFDYWGQGTLVTVSS
B2: TIM-3-CX119 (VHH)
VHH: B1 VHH with K29R, Q30V
B3: TIM-3-CX106 (VHH)
VHH: B1 VHH with K29R, Q30A
B4: TIM-3-CX153 (VHH)
VHH: QSMEESGGRLVKPDETLTLTCTVSGFSLSSYSMIWVRQAPGKGLEWIGIIGTTGNTYYASWAKGRFTISKTSTTVDLKMTSLTSEDTATYFCARYYADGVFDLWGQGTLVTVSS
B5: TIM-3-CX123 (VHH)
VHH: QKQLMESGGRLVTPGGSLTLTCTVSGIDLSSYAMGWVRQAPGKGLEWIGAISSSGNTYYASWAKGRFTISKTSTTVDLRITSPTTEDTATYFCAREGASSDGIYYNLWGQGTLVTVSS

Each binder was assayed against TIM-3重组蛋白 (human) (UniProt Q8TDQ0) (assay: ELISA: TIM-3 coated, biotinylated sdAb, HRP-streptavidin).

Row | binding | Binder
1 | binds | B1
2 | binds | B2
3 | binds | B3
4 | binds | B4
5 | binds | B5

These binders were tested against TIM-3重组蛋白 (human) (UniProt Q8TDQ0) (assay: competition ELISA on coated TIM-3; competitor biotinylated Galectin-9-rFc).

Row | binding | Binder
6 | binds | B4
7 | binds | B5
